This note sets out measurements from PubChem BioAssay.

For some assays here: The hits were mostly taken out for another list; the other results follow. The list shows a part of the results, in another mix than the full data. For some assays here: Entries with a potency or affinity are not part of this list. Results filed as inconclusive are left out. Activity calls are given as the source filed them.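 Rule for the calls, unless noted: active = fitted curve reaches a 35% signal fall AC35 below twice the sample's top valid tested dose (actives reach about 48 µM in these data); inactive = the rest, including activity in the rising direction.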

Experiment [1] can be described thus: DNA binders by acridine orange displacement, dose response, counter-screen for EWS/Fli inhibitor project, biochemical, fluorescence polarization, cherry-pick (AID 720586).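 Note: 0% = neutral control median and -100% = 10 µM mitoxantrone control median; lower polarization ratio signals compound binding to DNA.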 The conditions noted are these: salmon sperm DNA acridine orange fluorescence polarization; at 68 µM (top of the series). For orientation: The purpose of a counterscreen is to sort out artefacts and off-target activity.

A short description of experiment [2]: non-specific cell cytotoxicity, dose response, cytotoxicity control for PAX8 inhibitor project, plate reader, dry powder samples (AID 743021; call rule not given here). The settings on record: cell line, non-specific cytotoxicity counter-screen; at 35 µM (top of the series).

For `CN(C)C(=O)c1cccc(COc2ccc(N3C(N)=NC(N)=NC3(C)C)cc2Cl)c1`, the activity change, negative = DNA binding in experiment [1] was inactive: -16.3%. Regarding `O=C(CCCCCCC(=O)Nc1ccccc1)NO`, the activity change, negative = cytotoxicity in experiment [2] was inactive: -14.8%.
